No constants are given. Whether binding was seen depends on the method and setting. In cells and extracts the contact can be indirect. Some results given as binding are weak or reduced against the parent protein; the word gives no strength. Where a sequence is shown, tags or fusion partners need not be part of it.

By UniProt entry, the sequences of proteins in these tests, tags left out.
UniProt Q13547: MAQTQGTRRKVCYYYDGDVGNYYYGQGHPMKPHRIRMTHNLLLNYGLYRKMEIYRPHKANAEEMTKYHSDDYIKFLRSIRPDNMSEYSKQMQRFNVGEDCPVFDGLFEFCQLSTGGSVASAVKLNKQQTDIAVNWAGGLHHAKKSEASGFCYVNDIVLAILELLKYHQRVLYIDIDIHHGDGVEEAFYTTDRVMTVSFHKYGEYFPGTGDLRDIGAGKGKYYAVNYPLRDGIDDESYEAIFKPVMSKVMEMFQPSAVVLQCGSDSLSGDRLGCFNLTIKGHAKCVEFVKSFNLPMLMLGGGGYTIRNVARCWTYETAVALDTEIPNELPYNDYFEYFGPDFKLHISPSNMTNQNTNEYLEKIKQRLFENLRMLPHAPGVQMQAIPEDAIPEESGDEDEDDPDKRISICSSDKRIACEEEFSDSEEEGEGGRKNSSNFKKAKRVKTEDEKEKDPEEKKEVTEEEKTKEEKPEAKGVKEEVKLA

Experiment [1] addresses T1, FLAG-ING2WT, full-length wild-type ING2 (UniProt Q9H160).
T1 sequence: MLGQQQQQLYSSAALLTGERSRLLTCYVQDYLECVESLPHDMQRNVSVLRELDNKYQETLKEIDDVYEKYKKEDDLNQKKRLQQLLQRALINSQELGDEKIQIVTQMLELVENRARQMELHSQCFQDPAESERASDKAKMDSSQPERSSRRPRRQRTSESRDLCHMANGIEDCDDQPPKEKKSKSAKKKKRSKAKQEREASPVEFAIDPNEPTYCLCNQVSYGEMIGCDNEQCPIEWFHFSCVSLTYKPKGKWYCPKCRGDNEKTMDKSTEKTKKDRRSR
The experiment can be described thus: co-IP; FLAG immunoprecipitates (anti-FLAG M2-conjugated agarose, eluted with 0.4 mg/ml FLAG peptide) from HT1080 populations stably expressing FLAG-ING2 forms; lysis buffer 50 mM Tris-HCl pH 7.4, 250 mM NaCl, 0.5% Triton X-100, 10% glycerol; immunoblot. On the technique in general: In western blotting, separated proteins are transferred to a membrane and probed.

Experiment [2] concerns the target T2, FLAG-ING2_(6K/Rmt), full-length (UniProt Q9H160).
T2 sequence: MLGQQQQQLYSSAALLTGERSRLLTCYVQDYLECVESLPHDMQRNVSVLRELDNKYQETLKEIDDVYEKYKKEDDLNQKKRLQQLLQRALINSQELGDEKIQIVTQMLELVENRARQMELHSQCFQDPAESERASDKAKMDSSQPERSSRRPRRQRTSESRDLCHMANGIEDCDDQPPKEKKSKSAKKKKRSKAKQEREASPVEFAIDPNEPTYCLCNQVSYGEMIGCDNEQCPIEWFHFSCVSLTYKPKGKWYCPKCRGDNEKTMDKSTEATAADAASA
Described as above.

In the case of “HDAC1 (histone deacetylase 1) (from UniProt Q13547 1-482) (enzyme)”, the binding entry in experiment [1] and in experiment [2] was “binds” each time.

B1: SAP30 (protein, UniProt O75446 1-220)
chain: MNGFTPDEMSRGGDAAAAVAAVVAAAAAAASAGNGTGAGTGAEVPGAGAVSAAGPPGAAGPGPGQLCCLREDGERCGRAAGNASFSKRIQKSISQKKVKIELDKSARHLYICDYHKNLIQSVRNRRKRKGSDDDGGDSPVQDIDTPEVDLYQLQVNTLRRYKRHFKLPTRPGLNKAQLVEIVGCHFRSIPVNEKDTLTYFIYSVKNDKNKSDLKVDSGVH
As to B1, the binding result in experiment [1] and in experiment [2] was “binds” in each case.

For the origin of these results see PMC3705588.
